At least one compound was matched to its structure with a doubt left.
Test system: internal anal sphincter
Assay: rat internal anal sphincter (IAS) relaxation model: internal anal sphincter pressure (IASP) in anesthetized rats
Assay type: in vivo
Settings: for effect on IASP after i.p. injection: 7.5 mg in 100 μl 1M2P i.p.
Experimental: Male Sprague-Dawley rats (300-400 gm) were anesthetized with ketamine (90 mg/kg), xylazine (9 mg/kg) given intramuscularly and supplemented as needed with ⅓^rd dose. Rats were gently restrained on their backs on a heated surgical table (Harvard Apparatus) for the duration of the experiments. The diuretic effects of anesthesia was offset by rehydration with saline through an intraperitoneal implanted 24 gauge angiocatheter (VWR, San Francisco, Calif.). The constriction/relaxation measurement assembly included a Millar catheter/transducer (1.67 mm diameter.) connected to a Digi-Med Low Pressure Analyzer (Micro-Med) accurate for pressure measurements between −50 and 150 mmHg. The data were integrated and converted to waveforms with the Digi-Med System Integrator software. Blood pressure changes were monitored using an arterial catheter/transducer and a Digi-Med Blood Pressure Analyzer with the DMSI software. Respiratory changes were monitored using a mercury strain gauge/transducer, wrapped around the rib-cage of the rat, hooked up to a Digi-Med Analog Signal Analyzer along with the DMSI software. Drug delivery was accomplished through two Hamilton syringes with no dead space using PE 10 tubing adjacent to the catheter sensor.
In this example, male Sprague-Dawley rats (250-300 g each) from Charles River were used. The rats were anesthetized intramuscularly with ketamine (90 mg/kg) and xylazine (9 mg/kg) and kept warm on a heated surgical table. All internal anal sphincter pressures (IASP) were measured with Millar catheter/transducers (MPC-500 mikrotip; Millar Instruments, Houston) on low pressure analyzers and blood pressure analyzers and recorded by DMSI software provided by Micro-Med (Louisville). Rats were provided with saline i.p. for rehydration due to the diuretic effects of the anesthesia and re-anesthetized as needed with approximately ⅓ the original dosage. In most experiments, the IASP was allowed to reach a stable baseline level prior to drug delivery. Drugs were delivered to the anal sphincter mainly via PE 20 tubing attached to the catheter(s) near the sensor(s) from 100 μl or 250 μl Hamilton syringes either manually or by infusion with a programmable Harvard automatic infusion pump.

Compound: CCOC(=O)c1cnc2c(cnn2CC)c1NN=C(C)C [etazolate]
- effect on IASP of salbutamol plus etazolate (after 200 μg salbutamol alone: salbutamol plus etazolate, also at 200 μg in saline): dramatic and sustained drop in IASP
- effect on IASP of salbutamol plus etazolate, order of delivery reversed (etazolate bolus first, then salbutamol plus etazolate (FIG. 24), compared with FIG. 23): similar

Compound: C=C[C@@]1(C)CC(=O)[C@]2(O)[C@@]3(C)[C@@H](O)CCC(C)(C)[C@@H]3[C@H](O)[C@H](OC(C)=O)[C@@]2(C)O1 [forskolin]
- effect on IASP (in 5% DMSO/Acetone:Olive oil 1:1, infused continuously at 20 μg/hour): significant and sustained drop in IASP

Compound: Nc1cc(N2CCCCC2)nc(N)[n+]1[O-] [minoxidil]
- effect on IASP (830 μg in 20 μl 62.5% propylene glycol/water delivered to the IAS): significant and sustained drop in IASP
- relaxation of the rat IAS / reduction of IASP (summary statement in the description) (rat IAS in vivo, no dose stated): relaxed the rat IAS in vivo

Compound: COc1cc(-c2ccc(=O)[nH]n2)ccc1OC(F)F [zardaverine]
- IASP reached with subsequent isoproterenol infusion (7.5 mg i.p., 30 minutes later isoproterenol in saline at 0.2 μg/hour): almost zero
- effect on IASP after i.p. injection: rapid but transient drop in IASP
- effect on IASP after i.p. injection (listed as Zardaverine): rapid and transient decrease in IASP
- effect on average IASP with subsequent isoproterenol infusion (10 mg i.p., 30 minutes later isoproterenol in saline at 0.2 μg/hour): sustained decrease in average IASP
- effect on IASP immediately after i.p. injection (10 mg in 100 μl 1M2P i.p.): rapid drop in IASP
